From the supplement of paper PMC5662767
Where “and” joins values, the source holds several entries; their conditions need not be identical. Equal values may be shown once. Where a name gives a salt, the structure may show the parent alone. The list shows a part of the results. Baselines shift from plate to plate; read single values as rough.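 Smoothened with circularly permuted GFP in its cytoplasmic tail is carried by a clonal Drosophila S2 line; fluorescence appears when Hh-driven phosphorylation opens an inhibitory loop. Per-cell signal, read by flow cytometry, was scaled to Hh-stimulated untreated cells. Hits were consistent fluorescence-shifting groups of inhibitors sharing pathway targets, not single compounds.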

Each compound was assayed on Drosophila S2 cl14 SmoIP sensor cells (assay: normalized SmoIP GFP fluorescence (untreated unstimulated = 0%, untreated Hh-stimulated = 100%); higher = more Smo activation sensor fluorescence). Conditions: stimulation: Hh conditioned medium (+Hh); compound concentration: 15 uM; 24 h.

Row | SMILES | normalized SmoIP GFP fluorescence [%]
1 | COc1ccccc1OCC(O)CN1CCN(CC(=O)Nc2c(C)cccc2C)CC1 (stereo unspecified) [Ranolazine-dihydrochloride] | 134
2 | CCS(=O)(=O)c1cccc(-c2cc(C(=O)NC3CCN(C)CC3)c(C)c3[nH]c4ncc(C)cc4c23)c1 | 88.3
3 | CC(=O)Oc1ccccc1C(=O)O [aspirin-acetylsalicylic-acid] | 106
4 | CCOC(=O)c1ccc(OC(=O)CCCCCNC(=N)N)cc1 [gabexate-mesylate] | 136
5 | O[C@H](CNC[C@@H](O)[C@H]1CCc2cc(F)ccc2O1)[C@@H]1CCc2cc(F)ccc2O1 [Nebivolol(Bystolic)] | 174
6 | O=C1c2ccc(Nc3ccc(F)cc3F)cc2CCc2ccc(OC[C@H](O)CO)cc21 [skepinone-l] | 100
7 | NC(=O)N1c2ccccc2CC(=O)c2ccccc21 [Oxcarbazepine] | 133
8 | CCCS(=O)(=O)Nc1ccc(F)c(C(=O)c2c[nH]c3ncc(Cl)cc23)c1F | 214
9 | CCOC(=O)[C@H](CCc1ccccc1)N[C@H]1CS[C@H](c2cccs2)CN(CC(=O)O)C1=O [temocapril-hcl] | 158
10 | CN(Cc1cnc2nc(N)nc(N)c2n1)c1ccc(C(=O)N[C@@H](CCC(=O)O)C(=O)O)cc1 [Abitrexate] | 229
11 | CNCc1ccc(C)c(NC(=O)c2ccc(Nc3nc(-c4ccccc4)c4ccccc4n3)cc2)c1 | 170
12 | COc1cc(NC(=O)c2ccccn2)ccc1Cl | 106
13 | Nc1nnc(-c2cccc(Cl)c2Cl)c(N)n1 [lamotrigine] | 118
14 | CC[C@@H](C)Nc1cc(C(=O)N[C@H]2C[C@H]3CC[C@@H](C2)N3c2ccc(C(=O)C3CC3)cn2)c(C)cc1C(N)=O | 158
15 | O=C(O)c1ccc(N2C(=O)/C(=C\c3ccc(-c4ccc([N+](=O)[O-])cc4)o3)C=C2c2ccccc2)cc1 [4e1rcat] | 133
16 | CN1CCN(C2=Nc3cc(Cl)ccc3Nc3ccccc32)CC1 [Clozapine(Clozaril)] | 157
17 | Cc1cc(C2CCCCC2)n(O)c(=O)c1 [ciclopirox-ethanolamine] | 127
18 | CC(C)c1nc(CN(C)C(=O)N[C@H](C(=O)N[C@@H](Cc2ccccc2)C[C@H](O)[C@H](Cc2ccccc2)NC(=O)OCc2cncs2)C(C)C)cs1 [Ritonavir] | 123
19 | CC(C)NCC(O)COc1cccc2ccccc12 (stereo unspecified) [propranolol-hcl] | 125
20 | CN1C2CCC1CC(OC(=O)C(O)c1ccccc1)C2 (stereo unspecified) [homatropine-bromide] | 117
21 | CC(=O)O[C@H]1CC[C@@]2(C)C(=CCC3C2CC[C@]2(C)C(c4cccnc4)=CCC32)C1 (stereo partly specified) [Abiraterone-Acetate-CB7630] | 127

Same assay, conditions: stimulation: mock conditioned medium (-Hh); compound concentration: 15 uM; 24 h

Row | SMILES | normalized SmoIP GFP fluorescence
22 | COc1ccccc1OCC(O)CN1CCN(CC(=O)Nc2c(C)cccc2C)CC1 (stereo unspecified) [Ranolazine-dihydrochloride] | 10.7%
23 | CN(C)Cc1c(C(=O)NCCOc2ccc(C(=O)NO)cc2)oc2ccccc12 | 89.5%
24 | O=C(/C=C/c1cccc(S(=O)(=O)Nc2ccccc2)c1)NO [Belinostat] | 80.4%
25 | CCS(=O)(=O)c1cccc(-c2cc(C(=O)NC3CCN(C)CC3)c(C)c3[nH]c4ncc(C)cc4c23)c1 | -15.6%
26 | CC(=O)c1c(C)c2cnc(Nc3ccc(N4CCNCC4)cn3)nc2n(C2CCCC2)c1=O | 55.8%
27 | O=C(/C=C/c1ccc(CN(CCO)CCc2c[nH]c3ccccc23)cc1)NO | 85.1%
28 | COc1ccc(CCc2nc3cc(-c4c(C)noc4C)ccc3n2C[C@H](C)N2CCOCC2)cc1Cl | 73.4%
29 | CC(/C=C/C(=O)NO)=C\[C@@H](C)C(=O)c1ccc(N(C)C)cc1 [Trichostatin-A] | 75.3%
30 | CC(=O)Oc1ccccc1C(=O)O [aspirin-acetylsalicylic-acid] | -7.76%
31 | O=[N+]([O-])c1ccc2c(c1)S(=O)(=O)C=C2 [stattic] | 91.8%
32 | CCOC(=O)c1ccc(OC(=O)CCCCCNC(=N)N)cc1 [gabexate-mesylate] | -17.5%
33 | C=CC(=O)Nc1cccc(Nc2nc(Nc3ccc(N4CCN(C(C)=O)CC4)cc3OC)ncc2C(F)(F)F)c1 | 58.1%
34 | O[C@H](CNC[C@@H](O)[C@H]1CCc2cc(F)ccc2O1)[C@@H]1CCc2cc(F)ccc2O1 [Nebivolol(Bystolic)] | 70.3%
35 | O=C1c2ccc(Nc3ccc(F)cc3F)cc2CCc2ccc(OC[C@H](O)CO)cc21 [skepinone-l] | -0.0369%
36 | Nc1ccccc1NC(=O)c1ccc(CNC(=O)OCc2cccnc2)cc1 | 59.1%
37 | CCCS(=O)(=O)Nc1ccc(F)c(C(=O)c2c[nH]c3ncc(Cl)cc23)c1F | 37.9%
38 | CCOC(=O)[C@H](CCc1ccccc1)N[C@H]1CS[C@H](c2cccs2)CN(CC(=O)O)C1=O [temocapril-hcl] | -7.6%
39 | CN(Cc1cnc2nc(N)nc(N)c2n1)c1ccc(C(=O)N[C@@H](CCC(=O)O)C(=O)O)cc1 [Abitrexate] | 17.4%

Row | SMILES | normalized SmoIP GFP fluorescence
40 | COc1cc(NC(=O)c2ccccn2)ccc1Cl | -0.0369%
41 | CCCCc1nc2cc(/C=C/C(=O)NO)ccc2n1CCN(CC)CC | 83.9%
42 | Nc1nnc(-c2cccc(Cl)c2Cl)c(N)n1 [lamotrigine] | -0.378%
43 | O=C(Nc1cccnc1)N1CCC(Cc2cccc(Oc3ccc(C(F)(F)F)cn3)c2)CC1 | 94.6%
44 | CNC(=O)c1ccccc1Nc1nc(Nc2ccc(N3CCOCC3)cc2OC)ncc1Cl | 40.9%
45 | O=C(Oc1cc(S(=O)(=O)c2ccccc2)ccc1[N+](=O)[O-])c1ccc(Cl)cc1 | 81.3%
46 | CC[C@@H](C)Nc1cc(C(=O)N[C@H]2C[C@H]3CC[C@@H](C2)N3c2ccc(C(=O)C3CC3)cn2)c(C)cc1C(N)=O | 40.6%
47 | O=C(O)c1ccc(N2C(=O)/C(=C\c3ccc(-c4ccc([N+](=O)[O-])cc4)o3)C=C2c2ccccc2)cc1 [4e1rcat] | 3.72%
48 | C=CCc1cccc(/C=N/NC(=O)CN2CCN(Cc3ccccc3)CC2)c1O | 78.2%
49 | CN1CCN(C2=Nc3cc(Cl)ccc3Nc3ccccc32)CC1 [Clozapine(Clozaril)] | 34.5%
50 | CO[C@H]1/C=C\C=C(/C)C(=O)NC2=CC(=O)C(NCCN(C)C)=C(C[C@@H](C)C[C@H](OC)[C@H](O)[C@@H](C)/C=C(\C)[C@@H]1OC(N)=O)C2=O [17-DMAG,Hydrochloride-Salt] | 65.3%
51 | CC(C)c1nc(CN(C)C(=O)N[C@H](C(=O)N[C@@H](Cc2ccccc2)C[C@H](O)[C@H](Cc2ccccc2)NC(=O)OCc2cncs2)C(C)C)cs1 [Ritonavir] | -3.39%
52 | CC(C)NCC(O)COc1cccc2ccccc12 (stereo unspecified) [propranolol-hcl] | 16.7%
53 | CN(C)Cc1ccc(S(=O)(=O)n2ccc(/C=C/C(=O)NO)c2)cc1 [resminostat-ras2410] | 70.1%
54 | CC(C)N(CCCNC(=O)Nc1ccc(C(C)(C)C)cc1)C[C@H]1O[C@@H](n2ccc3c(N)ncnc32)[C@H](O)[C@@H]1O | 7.86% and 1.95%
55 | CC(C)[C@H](C(=O)Nc1ccc(C(=O)NO)cc1)c1ccccc1 | 64.6%
56 | CC(=O)O[C@H]1CC[C@@]2(C)C(=CCC3C2CC[C@]2(C)C(c4cccnc4)=CCC32)C1 (stereo partly specified) [Abiraterone-Acetate-CB7630] | 0.605%

Part of the list above, tab-delimited:
Row	SMILES	normalized SmoIP GFP fluorescence
46	CC[C@@H](C)Nc1cc(C(=O)N[C@H]2C[C@H]3CC[C@@H](C2)N3c2ccc(C(=O)C3CC3)cn2)c(C)cc1C(N)=O	40.6%
47	O=C(O)c1ccc(N2C(=O)/C(=C\c3ccc(-c4ccc([N+](=O)[O-])cc4)o3)C=C2c2ccccc2)cc1 [4e1rcat]	3.72%
48	C=CCc1cccc(/C=N/NC(=O)CN2CCN(Cc3ccccc3)CC2)c1O	78.2%
49	CN1CCN(C2=Nc3cc(Cl)ccc3Nc3ccccc32)CC1 [Clozapine(Clozaril)]	34.5%
50	CO[C@H]1/C=C\C=C(/C)C(=O)NC2=CC(=O)C(NCCN(C)C)=C(C[C@@H](C)C[C@H](OC)[C@H](O)[C@@H](C)/C=C(\C)[C@@H]1OC(N)=O)C2=O [17-DMAG,Hydrochloride-Salt]	65.3%
51	CC(C)c1nc(CN(C)C(=O)N[C@H](C(=O)N[C@@H](Cc2ccccc2)C[C@H](O)[C@H](Cc2ccccc2)NC(=O)OCc2cncs2)C(C)C)cs1 [Ritonavir]	-3.39%
52	CC(C)NCC(O)COc1cccc2ccccc12 (stereo unspecified) [propranolol-hcl]	16.7%
53	CN(C)Cc1ccc(S(=O)(=O)n2ccc(/C=C/C(=O)NO)c2)cc1 [resminostat-ras2410]	70.1%
54	CC(C)N(CCCNC(=O)Nc1ccc(C(C)(C)C)cc1)C[C@H]1O[C@@H](n2ccc3c(N)ncnc32)[C@H](O)[C@@H]1O	7.86% and 1.95%
55	CC(C)[C@H](C(=O)Nc1ccc(C(=O)NO)cc1)c1ccccc1	64.6%
56	CC(=O)O[C@H]1CC[C@@]2(C)C(=CCC3C2CC[C@]2(C)C(c4cccnc4)=CCC32)C1 (stereo partly specified) [Abiraterone-Acetate-CB7630]	0.605%
